Data reported in patent publication US10159726B2, “Peptides, combination of peptides and scaffolds for use in immunotherapeutic treatment of various cancers” (Immatics Biotechnologies GmbH, priority 2015, dated 2018).
For some assays here: For expression read-outs the peptide stands for its source gene, whose mRNA was measured; the gene is not named for every peptide.

Tests used:
[1] = test system: source genes of selected peptides; experiment: Target coverage of source genes in tumor entities based on TCGA Research Network data; design: species or system human; settings: over-expressed = more than 2-fold above the highest 75% percentile of normal organs; for Target coverage, over-expression category of source gene, BLCA (N = 408): Bladder urothelial carcinoma; for Target coverage, over-expression category of source gene, CESC (N = 307): Cervical squamous cell carcinoma and endocervical adenocarcinoma; for Target coverage, over-expression category of source gene, HNSC (N = 521): Head and neck squamous cell carcinoma; for Target coverage, over-expression category of source gene, DLBC (N = 48): Lymphoid neoplasm diffuse large B-cell lymphoma; for Target coverage, over-expression category of source gene, MESO (N = 87): Mesothelioma
[2] = test system: HLA-A*24 molecules of primary tumors; experiment: Identification and relative LC-MS quantitation of HLA-A*24 tumor-associated peptides presented on tissue samples (XPRESIDENT presentation profiles); design: species or system human; settings: Table 9A: selected HLA-A*24-binding tumor-associated peptides; cancer entities on which the peptide was found presented

Substance	Target coverage, over-expression category of source gene, BLCA (N = 408) [1]	Target coverage, over-expression category of source gene, CESC (N = 307) [1]	Target coverage, over-expression category of source gene, HNSC (N = 521) [1]	Target coverage, over-expression category of source gene, DLBC (N = 48) [1]	Target coverage, over-expression category of source gene, MESO (N = 87) [1]	ENTITIES [2]	Target coverage, over-expression category of source gene, ACC (N = 79) ([1]; Adrenocortical carcinoma)	Target coverage, over-expression category of source gene, LGG (N = 534) ([1]; Lower grade glioma)
400: peptide found in MMP1 (gene looked up) (KYLEKYYNL; listed as Homo sapiens) [compound 400]	B (>=20% of tumors above the cutoff, but <50%)	B (>=20% of tumors above the cutoff, but <50%)	A (>=50% of tumors above the cutoff)	B (>=20% of tumors above the cutoff, but <50%)	C (>=5% of tumors above the cutoff, but <20%)	NSCLC	–	–
401: peptide found in MMP1 (gene looked up) (VFMKDGFFYF; listed as Homo sapiens) [compound 401]	B (>=20% of tumors above the cutoff, but <50%)	B (>=20% of tumors above the cutoff, but <50%)	A (>=50% of tumors above the cutoff)	B (>=20% of tumors above the cutoff, but <50%)	C (>=5% of tumors above the cutoff, but <20%)	NSCLC, GC, PCA	–	–
403: peptide found in MMP12 (gene looked up) (TYKYVDINTF; listed as Homo sapiens) [compound 403]	C (>=5% of tumors above the cutoff, but <20%)	B (>=20% of tumors above the cutoff, but <50%)	B (>=20% of tumors above the cutoff, but <50%)	B (>=20% of tumors above the cutoff, but <50%)	–	NSCLC, GC	–	–
404: peptide found in MMP12 (gene looked up) (RYLEKFYGL; listed as Homo sapiens) [compound 404]	C (>=5% of tumors above the cutoff, but <20%)	B (>=20% of tumors above the cutoff, but <50%)	B (>=20% of tumors above the cutoff, but <50%)	B (>=20% of tumors above the cutoff, but <50%)	–	NSCLC, GC, HCC	–	–
405: peptide found in MMP12 (gene looked up) (NYPKSIHSF; listed as Homo sapiens) [compound 405]	C (>=5% of tumors above the cutoff, but <20%)	B (>=20% of tumors above the cutoff, but <50%)	B (>=20% of tumors above the cutoff, but <50%)	B (>=20% of tumors above the cutoff, but <50%)	–	NSCLC	–	–
408: peptide found in PLK4 (gene looked up) (QYASRFVQL; listed as Homo sapiens) [compound 408]	B (>=20% of tumors above the cutoff, but <50%)	A (>=50% of tumors above the cutoff)	B (>=20% of tumors above the cutoff, but <50%)	B (>=20% of tumors above the cutoff, but <50%)	–	GC, GB, HCC, NSCLC	–	–
409: peptide found in RRM2 (gene looked up) (YFISHVLAF; listed as Homo sapiens) [compound 409]	B (>=20% of tumors above the cutoff, but <50%)	A (>=50% of tumors above the cutoff)	B (>=20% of tumors above the cutoff, but <50%)	B (>=20% of tumors above the cutoff, but <50%)	–	GC, NSCLC	–	–
415: peptide found in PBK (gene looked up) (SYQKVIELF; listed as Homo sapiens) [compound 415]	C (>=5% of tumors above the cutoff, but <20%)	B (>=20% of tumors above the cutoff, but <50%)	C (>=5% of tumors above the cutoff, but <20%)	C (>=5% of tumors above the cutoff, but <20%)	–	PCA, HCC, NSCLC, CRC, GC, RCC, GB	C (>=5% of tumors above the cutoff, but <20%)	C (>=5% of tumors above the cutoff, but <20%)
